Assay [1] concerns the target human separase, Extra Spindle Pole Bodies-Like 1 (ESPL1) (human (endogenous in SV40-fibroblasts and primary fibroblasts)) (UniProt Q14674). Briefly: co-IP; SV40-fibroblast whole cell extracts pre-treated with benzonase nuclease; 5 µg anti-ESPL1 or anti-lamin A antibody on Dynabeads protein G, 1.5 h at RT; western blot for ESPL1 and lamin A.
Assay [2] has as its target T1, GST-SSE (Drosophila separase fused to GST) (Drosophila) (UniProt Q9VRN6).
T1 sequence: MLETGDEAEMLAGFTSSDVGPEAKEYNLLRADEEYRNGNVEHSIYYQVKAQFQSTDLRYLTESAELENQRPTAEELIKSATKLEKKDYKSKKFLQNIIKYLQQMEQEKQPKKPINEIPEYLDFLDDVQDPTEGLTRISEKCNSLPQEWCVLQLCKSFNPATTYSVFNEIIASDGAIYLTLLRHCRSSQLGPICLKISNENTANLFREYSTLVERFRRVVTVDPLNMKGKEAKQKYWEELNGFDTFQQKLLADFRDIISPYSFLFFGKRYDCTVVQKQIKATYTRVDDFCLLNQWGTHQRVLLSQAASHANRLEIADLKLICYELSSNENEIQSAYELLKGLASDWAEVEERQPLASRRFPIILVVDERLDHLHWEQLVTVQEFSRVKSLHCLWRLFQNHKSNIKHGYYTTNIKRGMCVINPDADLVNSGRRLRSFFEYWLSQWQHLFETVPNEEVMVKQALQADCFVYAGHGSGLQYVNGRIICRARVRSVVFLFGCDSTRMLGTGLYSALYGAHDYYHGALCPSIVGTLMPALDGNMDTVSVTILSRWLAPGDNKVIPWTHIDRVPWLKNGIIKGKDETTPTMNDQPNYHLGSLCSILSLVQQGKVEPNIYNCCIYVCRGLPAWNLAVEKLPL
Briefly: pull-down; GST fusion proteins bound to glutathione sepharose beads as baits, incubated with third instar larval brain extracts for 1 h at 4 °C in 20 mM Hepes KOH, 20 mM NaF, 0.8% NP40; western blot with anti-Dm0 or anti-LamC; only the target purified. (A western blot detects proteins with antibodies after separation by electrophoresis.)

Chains of the proteins cited; added tags and fusions are not shown. Residues count along the entry.
UniProt Q14674: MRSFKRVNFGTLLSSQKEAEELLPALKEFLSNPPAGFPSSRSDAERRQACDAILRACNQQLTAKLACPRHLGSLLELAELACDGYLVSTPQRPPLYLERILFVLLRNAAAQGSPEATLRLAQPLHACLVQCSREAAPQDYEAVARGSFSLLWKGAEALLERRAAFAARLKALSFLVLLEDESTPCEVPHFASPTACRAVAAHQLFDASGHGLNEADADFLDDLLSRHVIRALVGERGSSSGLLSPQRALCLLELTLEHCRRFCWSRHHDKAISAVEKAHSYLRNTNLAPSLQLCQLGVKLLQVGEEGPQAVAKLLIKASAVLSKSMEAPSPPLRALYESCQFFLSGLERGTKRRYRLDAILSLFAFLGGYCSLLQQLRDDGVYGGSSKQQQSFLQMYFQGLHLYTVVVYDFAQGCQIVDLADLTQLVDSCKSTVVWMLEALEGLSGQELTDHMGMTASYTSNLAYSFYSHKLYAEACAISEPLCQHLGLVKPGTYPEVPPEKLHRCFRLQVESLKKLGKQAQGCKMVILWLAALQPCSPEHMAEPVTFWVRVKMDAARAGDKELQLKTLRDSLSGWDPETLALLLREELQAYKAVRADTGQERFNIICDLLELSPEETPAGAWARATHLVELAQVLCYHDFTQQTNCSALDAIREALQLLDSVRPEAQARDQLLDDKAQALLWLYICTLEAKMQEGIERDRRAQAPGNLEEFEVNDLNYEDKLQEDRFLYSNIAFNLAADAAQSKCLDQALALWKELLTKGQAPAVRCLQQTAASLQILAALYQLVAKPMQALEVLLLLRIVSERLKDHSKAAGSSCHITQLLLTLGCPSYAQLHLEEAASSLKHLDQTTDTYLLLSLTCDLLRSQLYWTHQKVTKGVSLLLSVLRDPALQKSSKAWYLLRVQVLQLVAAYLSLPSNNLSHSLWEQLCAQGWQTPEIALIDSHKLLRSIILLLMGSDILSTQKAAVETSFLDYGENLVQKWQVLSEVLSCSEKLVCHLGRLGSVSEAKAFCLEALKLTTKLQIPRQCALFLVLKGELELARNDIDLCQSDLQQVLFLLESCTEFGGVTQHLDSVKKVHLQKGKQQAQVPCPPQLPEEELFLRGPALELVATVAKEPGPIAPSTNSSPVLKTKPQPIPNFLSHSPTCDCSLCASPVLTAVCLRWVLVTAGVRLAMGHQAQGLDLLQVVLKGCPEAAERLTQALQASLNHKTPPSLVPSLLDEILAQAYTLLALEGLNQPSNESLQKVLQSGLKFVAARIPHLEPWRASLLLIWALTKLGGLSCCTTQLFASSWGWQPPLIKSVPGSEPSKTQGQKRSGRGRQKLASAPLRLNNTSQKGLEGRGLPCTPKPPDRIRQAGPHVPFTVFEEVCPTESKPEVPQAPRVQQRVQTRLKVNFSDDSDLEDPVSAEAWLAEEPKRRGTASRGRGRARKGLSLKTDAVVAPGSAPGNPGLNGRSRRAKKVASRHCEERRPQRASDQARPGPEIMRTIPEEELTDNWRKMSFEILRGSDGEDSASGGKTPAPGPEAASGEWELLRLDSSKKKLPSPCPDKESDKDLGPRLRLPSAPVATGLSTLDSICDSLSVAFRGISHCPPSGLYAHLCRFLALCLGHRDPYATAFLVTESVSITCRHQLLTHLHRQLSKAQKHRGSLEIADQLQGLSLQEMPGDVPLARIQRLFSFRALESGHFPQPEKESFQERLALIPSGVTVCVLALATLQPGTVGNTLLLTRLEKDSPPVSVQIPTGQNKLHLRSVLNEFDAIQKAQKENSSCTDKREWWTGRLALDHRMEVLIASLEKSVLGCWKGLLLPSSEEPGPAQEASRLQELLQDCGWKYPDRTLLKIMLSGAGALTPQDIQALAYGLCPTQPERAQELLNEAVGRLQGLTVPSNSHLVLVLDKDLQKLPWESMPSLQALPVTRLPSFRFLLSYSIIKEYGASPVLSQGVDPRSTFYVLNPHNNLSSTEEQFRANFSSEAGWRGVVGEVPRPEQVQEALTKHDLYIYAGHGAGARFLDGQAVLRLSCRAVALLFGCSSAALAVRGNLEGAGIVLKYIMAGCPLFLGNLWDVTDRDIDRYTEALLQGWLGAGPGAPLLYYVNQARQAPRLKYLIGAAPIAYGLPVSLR
UniProt P02545, residues 1-646: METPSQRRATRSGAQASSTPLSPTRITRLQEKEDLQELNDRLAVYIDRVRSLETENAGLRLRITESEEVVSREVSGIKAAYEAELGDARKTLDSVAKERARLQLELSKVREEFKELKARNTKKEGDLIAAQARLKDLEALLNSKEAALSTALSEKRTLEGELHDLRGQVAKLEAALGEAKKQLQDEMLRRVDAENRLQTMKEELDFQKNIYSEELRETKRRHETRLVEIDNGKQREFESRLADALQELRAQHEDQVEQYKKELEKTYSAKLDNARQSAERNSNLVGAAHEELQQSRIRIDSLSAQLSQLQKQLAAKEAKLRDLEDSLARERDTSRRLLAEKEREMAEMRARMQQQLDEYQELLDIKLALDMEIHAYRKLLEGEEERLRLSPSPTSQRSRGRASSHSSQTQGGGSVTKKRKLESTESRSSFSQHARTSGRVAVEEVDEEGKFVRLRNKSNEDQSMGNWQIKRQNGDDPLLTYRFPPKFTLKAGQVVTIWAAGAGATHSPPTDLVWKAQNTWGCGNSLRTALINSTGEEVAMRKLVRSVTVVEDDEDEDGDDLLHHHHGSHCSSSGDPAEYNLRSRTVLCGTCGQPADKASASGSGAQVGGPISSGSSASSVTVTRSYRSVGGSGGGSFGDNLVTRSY

These are yes or no findings as the source states them, for the method shown. In cells and extracts the contact can be indirect. Some binding calls cover weakened binding; strength is not graded here. For some assays here: Where a sequence is shown, tags or fusion partners need not be part of it.

In the case of “human lamin A (from UniProt P02545 1-646)”, in assay [1], the binding entry was “binds”.

B1: A/C-type lamin C (LamC) (protein, UniProt Q03427 1-621)
chain: MSARRVTLNTRVSRASTSTPVGGASTSSRVGATSPTSPTRTSRQQEKEELQHLNDRLACYIDRMRNLENENSRLTQELNLAQDTVNRETSNLKAVYEKELAAARKLLDETAKEKAKLEIDIKRLWEENDDLKPRLDKKTKEATVAENNARLYENRYNEVNGKYNQSLADRKKFEDQAKELALENERLRRQLDDLRKQLEAETLARVDLENQNQSLREELAFKDQVHTQELTETRSRRQIEISEIDGRLSRQYEAKLQQSLQELRDQYEGQMRINREEIELLYDNEIQNLKAAANRAAQGSALATEEVRLMRTKIDGLNAKLQNLEDTNAGLNARIRELENLLDTERQRHNQYIASLEAELQRMRDEMAHQLQEYQGLMDIKVSLDLEIAAYDKLLCGEERRLNIESPGRPTTDSGISSNGSHLTASASSRSGRVTPSGRRSATPGISGSSAVKRRRTVIDESEDRTLSEYSVNAAAKGDLEIIEADVEGRFIKLHNKGTEEINLTGWQLTRIAGDEELAFKFSRGSKVLGGASVTIWSVDAGTAHDPPNNLVMKKKWPVANSMRSVLANADKEDVASYDRVRANVSSHTSRHRSSGTPSTGFTLGSGAGSTGVRSLFSLLF
Take B1: the binding entry in assay [2] is given as “binds”.
